Laboratory results published in patent US6514737.
Protein sequences can lack the tags named with them.

System: T1, AsiSI methylase (M.AsiSI) V1M (Arthrobacter sp. S)
T1 sequence (limits assumed): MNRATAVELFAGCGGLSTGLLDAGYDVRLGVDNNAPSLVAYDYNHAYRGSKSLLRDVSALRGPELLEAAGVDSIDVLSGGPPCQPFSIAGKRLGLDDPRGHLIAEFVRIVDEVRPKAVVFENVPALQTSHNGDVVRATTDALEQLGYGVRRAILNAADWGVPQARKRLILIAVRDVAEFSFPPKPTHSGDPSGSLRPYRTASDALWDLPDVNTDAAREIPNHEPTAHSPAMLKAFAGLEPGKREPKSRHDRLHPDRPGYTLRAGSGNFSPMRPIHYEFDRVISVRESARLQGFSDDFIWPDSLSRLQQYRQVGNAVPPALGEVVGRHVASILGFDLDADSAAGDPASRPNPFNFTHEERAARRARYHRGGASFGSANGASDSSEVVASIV
Test: activity in cells
Conditions: pRRS(2AsiSI) co-transformed with pACYC-AsiSIM clones 1, 3, 4 became resistant to AsiSI digestion; protein in cells; only the site is given

## GCGATCGC (double strand) [AsiSI sites in pRRS(2AsiSI) plasmid]
  activity on this sequence: active
